The source of these data is the supplement of paper PMC12819154, “High-throughput peptide-centric local stability assay extends protein–ligand identification to membrane proteins, tissues and bacteria” (Nature Structural & Molecular Biology, 2025).

Sequences of proteins named here, by UniProt entry; tags and fusion partners are left off. A change or cut given only in a name is not applied to a line headed by its entry.
UniProt Q8TAF3: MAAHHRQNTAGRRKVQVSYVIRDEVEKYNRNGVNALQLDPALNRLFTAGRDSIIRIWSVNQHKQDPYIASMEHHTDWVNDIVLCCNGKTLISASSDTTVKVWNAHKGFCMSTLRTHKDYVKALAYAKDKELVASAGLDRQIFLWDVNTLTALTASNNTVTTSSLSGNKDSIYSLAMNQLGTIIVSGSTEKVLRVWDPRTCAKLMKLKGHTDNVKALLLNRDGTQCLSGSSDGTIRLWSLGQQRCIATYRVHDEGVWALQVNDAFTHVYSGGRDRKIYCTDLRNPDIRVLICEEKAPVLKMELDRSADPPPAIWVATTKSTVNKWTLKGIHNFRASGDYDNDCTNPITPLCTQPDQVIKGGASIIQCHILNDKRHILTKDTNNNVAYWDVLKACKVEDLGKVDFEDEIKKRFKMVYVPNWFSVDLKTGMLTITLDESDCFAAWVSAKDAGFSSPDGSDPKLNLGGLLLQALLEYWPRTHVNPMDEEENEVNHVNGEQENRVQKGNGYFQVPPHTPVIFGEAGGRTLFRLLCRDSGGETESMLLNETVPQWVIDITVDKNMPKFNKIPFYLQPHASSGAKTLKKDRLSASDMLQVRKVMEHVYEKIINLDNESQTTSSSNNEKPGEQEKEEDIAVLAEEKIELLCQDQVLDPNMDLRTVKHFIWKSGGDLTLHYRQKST
UniProt Q8NE35: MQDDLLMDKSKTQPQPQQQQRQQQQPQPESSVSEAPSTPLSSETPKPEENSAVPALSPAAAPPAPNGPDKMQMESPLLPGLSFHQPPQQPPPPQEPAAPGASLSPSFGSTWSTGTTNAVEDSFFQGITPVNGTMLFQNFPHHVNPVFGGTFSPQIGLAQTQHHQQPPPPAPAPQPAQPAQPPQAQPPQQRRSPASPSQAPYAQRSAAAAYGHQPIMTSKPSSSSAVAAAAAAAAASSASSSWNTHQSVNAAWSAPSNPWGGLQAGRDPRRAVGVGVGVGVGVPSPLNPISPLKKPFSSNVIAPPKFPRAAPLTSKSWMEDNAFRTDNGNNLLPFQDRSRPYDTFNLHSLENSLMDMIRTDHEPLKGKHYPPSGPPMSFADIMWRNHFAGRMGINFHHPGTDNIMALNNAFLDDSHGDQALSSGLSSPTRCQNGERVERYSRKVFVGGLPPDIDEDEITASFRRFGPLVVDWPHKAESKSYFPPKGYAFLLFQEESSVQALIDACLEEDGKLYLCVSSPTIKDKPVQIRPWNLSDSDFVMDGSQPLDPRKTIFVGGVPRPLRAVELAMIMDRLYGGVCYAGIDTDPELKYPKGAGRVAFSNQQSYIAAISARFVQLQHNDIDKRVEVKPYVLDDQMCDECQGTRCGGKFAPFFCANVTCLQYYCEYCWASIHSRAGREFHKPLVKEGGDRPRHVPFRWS
UniProt Q8NBF6: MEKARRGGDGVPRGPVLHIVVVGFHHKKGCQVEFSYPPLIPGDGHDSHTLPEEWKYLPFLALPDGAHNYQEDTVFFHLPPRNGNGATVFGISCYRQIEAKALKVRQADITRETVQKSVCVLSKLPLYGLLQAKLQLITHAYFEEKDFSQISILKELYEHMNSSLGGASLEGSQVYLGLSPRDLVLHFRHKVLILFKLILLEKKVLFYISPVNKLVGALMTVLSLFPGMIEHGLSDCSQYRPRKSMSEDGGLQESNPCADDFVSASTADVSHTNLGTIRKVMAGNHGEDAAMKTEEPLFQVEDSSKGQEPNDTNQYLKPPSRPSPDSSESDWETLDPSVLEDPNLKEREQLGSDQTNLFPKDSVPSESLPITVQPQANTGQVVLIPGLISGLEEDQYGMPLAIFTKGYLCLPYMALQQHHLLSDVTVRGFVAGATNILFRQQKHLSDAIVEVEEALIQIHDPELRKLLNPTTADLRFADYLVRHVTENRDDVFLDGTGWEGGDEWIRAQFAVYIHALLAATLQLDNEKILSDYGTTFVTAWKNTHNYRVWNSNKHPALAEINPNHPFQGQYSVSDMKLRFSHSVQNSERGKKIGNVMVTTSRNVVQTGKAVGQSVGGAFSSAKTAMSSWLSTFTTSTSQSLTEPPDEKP
UniProt Q8NFZ0: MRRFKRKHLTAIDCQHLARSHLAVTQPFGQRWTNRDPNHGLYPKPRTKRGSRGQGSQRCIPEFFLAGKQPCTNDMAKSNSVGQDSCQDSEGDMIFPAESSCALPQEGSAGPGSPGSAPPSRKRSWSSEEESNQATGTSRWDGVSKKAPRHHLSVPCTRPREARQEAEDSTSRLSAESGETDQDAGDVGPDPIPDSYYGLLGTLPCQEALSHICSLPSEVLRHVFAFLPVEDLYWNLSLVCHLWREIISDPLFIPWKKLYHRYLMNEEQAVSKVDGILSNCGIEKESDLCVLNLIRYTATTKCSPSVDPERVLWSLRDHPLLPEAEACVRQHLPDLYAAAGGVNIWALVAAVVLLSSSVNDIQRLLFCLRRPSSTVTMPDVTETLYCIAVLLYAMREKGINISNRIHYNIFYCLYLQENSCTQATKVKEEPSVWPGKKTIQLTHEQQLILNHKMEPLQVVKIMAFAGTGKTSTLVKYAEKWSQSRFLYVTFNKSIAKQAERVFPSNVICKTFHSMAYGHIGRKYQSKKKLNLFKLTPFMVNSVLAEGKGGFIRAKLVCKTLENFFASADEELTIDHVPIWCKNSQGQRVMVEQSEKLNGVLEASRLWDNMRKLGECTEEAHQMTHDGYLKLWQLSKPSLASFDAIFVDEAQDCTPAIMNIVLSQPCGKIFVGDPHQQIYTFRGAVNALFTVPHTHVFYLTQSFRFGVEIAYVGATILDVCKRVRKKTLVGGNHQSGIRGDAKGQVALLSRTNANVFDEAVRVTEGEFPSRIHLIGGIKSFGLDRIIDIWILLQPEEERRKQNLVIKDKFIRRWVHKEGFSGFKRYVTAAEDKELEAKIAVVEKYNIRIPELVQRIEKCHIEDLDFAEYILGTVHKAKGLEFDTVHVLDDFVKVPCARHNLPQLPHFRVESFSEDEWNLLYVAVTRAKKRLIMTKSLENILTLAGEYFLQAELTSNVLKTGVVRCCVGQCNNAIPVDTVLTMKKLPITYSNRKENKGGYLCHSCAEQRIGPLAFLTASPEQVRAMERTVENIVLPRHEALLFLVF
UniProt Q8N4S0: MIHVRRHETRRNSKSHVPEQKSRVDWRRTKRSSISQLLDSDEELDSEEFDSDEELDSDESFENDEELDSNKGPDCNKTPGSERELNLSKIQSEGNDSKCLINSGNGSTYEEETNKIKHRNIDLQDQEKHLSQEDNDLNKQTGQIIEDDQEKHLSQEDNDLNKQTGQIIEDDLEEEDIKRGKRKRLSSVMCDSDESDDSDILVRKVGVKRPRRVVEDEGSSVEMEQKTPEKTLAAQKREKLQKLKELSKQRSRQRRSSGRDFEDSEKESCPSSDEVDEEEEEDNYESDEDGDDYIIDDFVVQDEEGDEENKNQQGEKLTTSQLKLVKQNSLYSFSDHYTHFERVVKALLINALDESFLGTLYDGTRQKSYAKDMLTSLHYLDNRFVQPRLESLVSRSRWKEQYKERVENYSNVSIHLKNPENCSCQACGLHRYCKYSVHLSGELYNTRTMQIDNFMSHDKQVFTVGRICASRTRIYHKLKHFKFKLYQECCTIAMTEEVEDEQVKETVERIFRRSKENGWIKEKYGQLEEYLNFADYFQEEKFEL
UniProt Q8NCY6: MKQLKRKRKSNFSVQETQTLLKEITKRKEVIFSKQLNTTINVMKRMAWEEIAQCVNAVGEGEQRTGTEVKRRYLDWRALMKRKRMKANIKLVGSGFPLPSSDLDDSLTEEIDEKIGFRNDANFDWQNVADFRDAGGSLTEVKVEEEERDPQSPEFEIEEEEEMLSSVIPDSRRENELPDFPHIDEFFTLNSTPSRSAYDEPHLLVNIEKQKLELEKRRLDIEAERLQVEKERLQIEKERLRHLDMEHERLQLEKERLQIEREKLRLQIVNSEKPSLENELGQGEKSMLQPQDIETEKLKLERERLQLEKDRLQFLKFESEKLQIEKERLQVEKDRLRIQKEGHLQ
UniProt Q8TB37: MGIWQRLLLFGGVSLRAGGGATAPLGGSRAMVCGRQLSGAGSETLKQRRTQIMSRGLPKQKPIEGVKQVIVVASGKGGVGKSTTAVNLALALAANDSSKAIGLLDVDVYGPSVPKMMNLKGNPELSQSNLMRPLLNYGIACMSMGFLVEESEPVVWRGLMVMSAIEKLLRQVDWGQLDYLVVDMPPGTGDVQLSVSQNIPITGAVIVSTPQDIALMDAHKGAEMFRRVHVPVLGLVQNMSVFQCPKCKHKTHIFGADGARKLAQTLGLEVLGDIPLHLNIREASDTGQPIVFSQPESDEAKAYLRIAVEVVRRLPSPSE
UniProt Q8TBC3: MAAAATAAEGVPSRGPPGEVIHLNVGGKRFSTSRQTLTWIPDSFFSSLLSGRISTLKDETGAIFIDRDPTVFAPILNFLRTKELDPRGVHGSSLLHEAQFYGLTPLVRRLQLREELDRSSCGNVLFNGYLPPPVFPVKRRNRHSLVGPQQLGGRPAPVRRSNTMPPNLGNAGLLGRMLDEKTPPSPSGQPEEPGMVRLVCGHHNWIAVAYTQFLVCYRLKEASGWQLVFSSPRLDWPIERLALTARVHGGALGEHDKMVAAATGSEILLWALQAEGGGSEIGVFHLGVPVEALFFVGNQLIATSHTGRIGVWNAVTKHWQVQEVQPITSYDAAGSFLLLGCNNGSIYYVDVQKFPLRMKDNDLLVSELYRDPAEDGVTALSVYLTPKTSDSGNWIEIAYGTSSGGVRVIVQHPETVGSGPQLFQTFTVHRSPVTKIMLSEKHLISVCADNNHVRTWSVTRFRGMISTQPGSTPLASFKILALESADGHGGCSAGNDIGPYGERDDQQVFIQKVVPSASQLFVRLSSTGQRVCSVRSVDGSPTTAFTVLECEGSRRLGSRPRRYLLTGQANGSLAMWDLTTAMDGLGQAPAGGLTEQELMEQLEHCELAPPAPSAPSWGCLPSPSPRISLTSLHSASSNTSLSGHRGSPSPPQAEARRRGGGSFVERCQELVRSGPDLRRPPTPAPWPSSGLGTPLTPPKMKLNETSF
UniProt Q8NB90: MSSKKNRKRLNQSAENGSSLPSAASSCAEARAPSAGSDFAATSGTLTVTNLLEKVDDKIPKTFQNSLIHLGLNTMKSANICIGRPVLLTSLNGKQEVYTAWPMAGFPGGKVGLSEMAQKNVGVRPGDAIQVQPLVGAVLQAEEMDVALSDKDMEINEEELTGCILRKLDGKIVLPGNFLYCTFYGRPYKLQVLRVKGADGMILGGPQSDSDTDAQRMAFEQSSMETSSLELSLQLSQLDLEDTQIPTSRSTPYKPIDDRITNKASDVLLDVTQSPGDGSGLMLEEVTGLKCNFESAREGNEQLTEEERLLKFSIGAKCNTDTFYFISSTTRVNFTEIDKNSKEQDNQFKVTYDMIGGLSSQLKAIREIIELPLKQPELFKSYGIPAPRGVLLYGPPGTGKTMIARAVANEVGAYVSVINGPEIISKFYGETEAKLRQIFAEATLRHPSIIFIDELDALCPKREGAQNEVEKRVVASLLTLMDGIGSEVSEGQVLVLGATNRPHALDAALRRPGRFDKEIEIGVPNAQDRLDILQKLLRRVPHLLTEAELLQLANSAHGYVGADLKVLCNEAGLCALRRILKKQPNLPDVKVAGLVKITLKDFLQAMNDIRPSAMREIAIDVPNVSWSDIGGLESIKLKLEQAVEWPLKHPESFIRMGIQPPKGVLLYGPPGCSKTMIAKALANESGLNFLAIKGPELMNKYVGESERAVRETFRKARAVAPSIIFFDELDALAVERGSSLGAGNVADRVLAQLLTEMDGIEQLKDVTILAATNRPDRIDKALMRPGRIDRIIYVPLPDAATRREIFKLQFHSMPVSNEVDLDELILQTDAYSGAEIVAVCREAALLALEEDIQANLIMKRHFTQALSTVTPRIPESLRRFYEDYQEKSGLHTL
UniProt Q8N8R7: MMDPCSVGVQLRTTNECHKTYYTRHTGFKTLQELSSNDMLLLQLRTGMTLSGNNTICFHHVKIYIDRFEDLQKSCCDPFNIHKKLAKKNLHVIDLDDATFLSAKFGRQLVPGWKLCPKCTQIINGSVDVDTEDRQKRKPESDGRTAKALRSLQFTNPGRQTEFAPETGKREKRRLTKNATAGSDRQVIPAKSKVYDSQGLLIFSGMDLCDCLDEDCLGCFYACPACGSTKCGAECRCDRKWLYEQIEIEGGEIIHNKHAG
UniProt Q8N7N1: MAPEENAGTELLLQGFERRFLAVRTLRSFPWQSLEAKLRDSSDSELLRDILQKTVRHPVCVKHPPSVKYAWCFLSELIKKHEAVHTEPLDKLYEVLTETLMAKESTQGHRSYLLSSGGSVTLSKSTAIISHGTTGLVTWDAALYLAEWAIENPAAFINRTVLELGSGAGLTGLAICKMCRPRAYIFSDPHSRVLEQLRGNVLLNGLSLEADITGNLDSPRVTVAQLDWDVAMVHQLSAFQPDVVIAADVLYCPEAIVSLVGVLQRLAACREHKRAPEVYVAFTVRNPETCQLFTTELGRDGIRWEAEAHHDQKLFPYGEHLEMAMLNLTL

This is one part of the list. Most values lie at the level of the controls, where differences are scatter.

Compound in this experiment: CN[C@@H]1C[C@H]2O[C@@](C)([C@@H]1OC)n1c3ccccc3c3c4c(c5c6ccccc6n2c5c31)C(=O)NC4 [staurosporine]
Nature of the experiment: log2 fold change of tryptic peptide abundance, ligand vs vehicle (limited proteolysis) (log2 ratio); higher = more trypsin-susceptible (destabilized). To be noted: ligand concentration: 20 uM; sample: K562 cleared lysate; digestion: 4 min, 22 C (HT-PELSA RT4min, Orbitrap Astral).
As for “WDR48 (peptide sequence: LSASDMLQVR, peptide start residue: 585) (UniProt Q8TAF3)”, the log2 fold change amounted to 0.329. Take “CPEB3 (peptide sequence: KPFSSNVIAPPKFPR, peptide start residue: 294) (UniProt Q8NE35)”: the log2 fold change was 0.312. Next, “SUPT20H (peptide sequence: SPTPPPSSKPSSIPR, peptide start residue: 492) (UniProt Q8NEM7)”: -0.275; “AVL9 (peptide sequence: FSHSVQNSER, peptide start residue: 579) (UniProt Q8NBF6)”: 0.174; “ARID1B (peptide sequence: GSPVSSLPAVGK, peptide start residue: 1154) (UniProt Q8NFD5)”: 0.306. Next, “FBH1 (peptide sequence: GAVNALFTVPHTHVFYLTQSFR, peptide start residue: 682) (UniProt Q8NFZ0)”: 0.412.

Turning to “TTC30B (peptide sequence: ACLYAEATR, peptide start residue: 92) (UniProt Q8N4P2)”, the log2 fold change worked out at 0.183. For “LNX1 (peptide sequence: NNGQAPDAYRPR, peptide start residue: 365) (UniProt Q8TBB1)”, the log2 fold change is -0.182.

Consider “CCDC82 (peptide sequence: NIDLQDQEK, peptide start residue: 120) (UniProt Q8N4S0)”, for which the log2 fold change is -0.25.

Consider “UniProt Q8NCY6 (peptide sequence: SAYDEPHLLVNIEK, peptide start residue: 196)”, for which the log2 fold change was determined as 0.461. Next, “UniProt Q8NB37 (peptide sequence: LESIDGAR, peptide start residue: 78)”: 0.157; “MINDY2 (peptide sequence: DSGLESPAAAEAPLRGQYK, peptide start residue: 89) (UniProt Q8NBR6)”: 0.046. The result for “NUBPL (peptide sequence: GLMVMSAIEK, peptide start residue: 158) (UniProt Q8TB37)” reads -0.223; that for “UBAC2 (peptide sequence: QLMFSQFAQGR, peptide start residue: 253) (UniProt Q8NBM4)”, -0.24. Next, “FAM98A (peptide sequence: TTISVAHLLAAR, peptide start residue: 261) (UniProt Q8NCA5)”: 0.195; “UniProt Q8NCP5 (peptide sequence: GLDAGQENNSNCNFTSR, peptide start residue: 140)”: -0.255. Turning to “SHKBP1 (peptide sequence: GGGSFVERCQELVR, peptide start residue: 659) (UniProt Q8TBC3)”, the log2 fold change is -0.137. “KRI1 (peptide sequence: SEQEELR, peptide start residue: 562) (UniProt Q8N9T8)”: the log2 fold change is -0.219. Next, “UniProt Q8N594 (peptide sequence: SPSEPAHPEATTPGK, peptide start residue: 214)”: -0.767; “UBA3 (peptide sequence: ADGEEPEKK, peptide start residue: 2) (UniProt Q8TBC4)”: -0.171. Next, “MCPH1 (peptide sequence: FLSNLSKEEINLQR, peptide start residue: 291) (UniProt Q8NEM0)”: -0.187; “SPATA5 (peptide sequence: REGAQNEVEKR, peptide start residue: 462) (UniProt Q8NB90)”: 0.286. Consider “NIN (peptide sequence: LQQENSILR, peptide start residue: 798) (UniProt Q8N4C6)”, for which the log2 fold change is -0.115.

For “UniProt Q8N8R7 (peptide sequence: TGMTLSGNNTICFHHVK, peptide start residue: 46)”, the log2 fold change is -0.249. The result for “LEMD2 (peptide sequence: LPSSLLGPDPRPGLR, peptide start residue: 172) (UniProt Q8NC56)” reads -0.201; that for “UniProt Q8N7N1 (peptide sequence: SFPWQSLEAK, peptide start residue: 28)”, -0.241.
